{"source": "paper PMC6701830", "key": {"[1]": {"target": "T1, full length Clec9A expressed on the surface of transfected 293T cells (pClec9A-EGFP) (mouse) (UniProt Q8BRU4)", "T1 sequence": "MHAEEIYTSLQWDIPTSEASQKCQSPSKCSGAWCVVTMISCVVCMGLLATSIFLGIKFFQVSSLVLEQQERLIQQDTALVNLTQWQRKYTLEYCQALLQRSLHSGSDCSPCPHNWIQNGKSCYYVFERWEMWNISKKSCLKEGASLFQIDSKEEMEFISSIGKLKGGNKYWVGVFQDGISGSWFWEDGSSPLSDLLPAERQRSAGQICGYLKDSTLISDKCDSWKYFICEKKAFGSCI", "experiment": "flow cytometry on cells; 293T cells transfected with pClec9A-EGFP, stained with 10μg/mL uncleaved AD8 gp140, detected with PGT121-CF647; gated on EGFP High or EGFP Low cells; only the binder purified"}, "[2]": {"target": "T2, soluble Clec9A ectodomain (recombinant) (mouse) (UniProt Q8BRU4)", "T2 sequence": "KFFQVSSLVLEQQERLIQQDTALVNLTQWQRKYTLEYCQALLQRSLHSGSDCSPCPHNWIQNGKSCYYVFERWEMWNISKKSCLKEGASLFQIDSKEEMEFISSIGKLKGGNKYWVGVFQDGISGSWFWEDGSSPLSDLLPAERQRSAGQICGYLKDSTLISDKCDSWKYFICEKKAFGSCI", "experiment": "ELISA; soluble Clec9A ectodomain coated at 100 ng/well; Env in tissue culture supernatant prior to purification, half log series; detected with pooled HIV+ sera; single experiment (Fig 1D); only the target purified"}, "[3]": {"target": "T2, soluble Clec9A ectodomain (recombinant) (mouse)", "experiment": "ELISA; soluble Clec9A ectodomain coated at 100 ng/well (100mM NaCl, 20mM Tris, pH 8.8, overnight 4°C); purified Env titrated in a half log series, two hours at room temperature in block buffer; detected with pooled HIV+ sera; single experiment (Fig 1E); both purified"}}, "note": "These are yes or no findings as the source states them, for the method shown. For part of these data: Where a sequence is shown, tags or fusion partners need not be part of it."}
{"substance": "uncleaved AD8 gp140 (soluble ectodomain of HIV-1 AD8 Env) (domain or fragment)", "values": [{"measurement": "binding", "setting": "[1]", "value": "no binding (tested: 10μg/mL)"}, {"measurement": "binding", "setting": "[2]", "value": "no binding"}, {"measurement": "binding", "setting": "[3]", "value": "no binding"}]}
